Tested on: BAR-containing Arabidopsis
Assay: LC-MS quantification of acetyl-aminoadipate and acetyl-tryptophan in BAR-containing Arabidopsis T-DNA mutants
Assay type: in vivo, Arabidopsis thaliana
Settings: for abundance in senescent leaf tissue: BAR-containing Arabidopsis, estimated

SMILES	abundance in senescent leaf tissue	acetyl-aminoadipate level in homozygous mutant (FLAG_lkrsdh homozygous, after senescence induction)
CC(=O)N[C@@H](Cc1c[nH]c2ccccc12)C(=O)O [acetyl-tryptophan, N-acetyl-L-tryptophan]	~10 μg/g fresh weight	–
CC(=O)N[C@@H](CCCC(=O)O)C(=O)O [acetyl-aminoadipate, N-acetyl-L-aminoadipate]	around 100 μg/g fresh weight	greatly reduced

From patent US11492636B2, “Modified bialaphos resistance acetyltransferase compositions and uses thereof” (Whitehead Institute for Biomedical Research, priority 2016, dated 2022)
